Test [1] has as its target T1, cell division cycle 6 (CDC6) tagged with HA (human) (UniProt Q99741).
T1 sequence: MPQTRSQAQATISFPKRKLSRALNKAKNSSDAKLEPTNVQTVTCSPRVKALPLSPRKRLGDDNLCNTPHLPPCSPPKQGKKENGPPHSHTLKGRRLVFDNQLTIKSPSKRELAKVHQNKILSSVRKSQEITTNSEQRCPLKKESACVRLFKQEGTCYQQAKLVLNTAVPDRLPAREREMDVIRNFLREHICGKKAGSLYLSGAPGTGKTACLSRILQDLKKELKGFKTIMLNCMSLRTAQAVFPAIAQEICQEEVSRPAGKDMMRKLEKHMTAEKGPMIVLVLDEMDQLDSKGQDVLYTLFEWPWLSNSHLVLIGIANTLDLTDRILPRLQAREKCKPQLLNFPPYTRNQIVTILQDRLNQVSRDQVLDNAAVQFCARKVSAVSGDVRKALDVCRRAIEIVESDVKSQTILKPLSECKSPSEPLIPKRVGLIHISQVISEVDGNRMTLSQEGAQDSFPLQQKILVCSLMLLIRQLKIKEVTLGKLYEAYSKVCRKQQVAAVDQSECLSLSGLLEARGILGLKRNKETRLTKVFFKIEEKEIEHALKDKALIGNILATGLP
Put plainly: co-IP; HEK293T transfected with CDC6-HA and TMOD3-Flag for 48 h; western-IP lysis buffer; anti-HA and anti-Flag magnetic beads overnight; western blotting.

Test [2] concerns the target T2, CDC6 in pBiFC-VN (Venus fragment fusion) (human) (UniProt Q99741).
T2 sequence: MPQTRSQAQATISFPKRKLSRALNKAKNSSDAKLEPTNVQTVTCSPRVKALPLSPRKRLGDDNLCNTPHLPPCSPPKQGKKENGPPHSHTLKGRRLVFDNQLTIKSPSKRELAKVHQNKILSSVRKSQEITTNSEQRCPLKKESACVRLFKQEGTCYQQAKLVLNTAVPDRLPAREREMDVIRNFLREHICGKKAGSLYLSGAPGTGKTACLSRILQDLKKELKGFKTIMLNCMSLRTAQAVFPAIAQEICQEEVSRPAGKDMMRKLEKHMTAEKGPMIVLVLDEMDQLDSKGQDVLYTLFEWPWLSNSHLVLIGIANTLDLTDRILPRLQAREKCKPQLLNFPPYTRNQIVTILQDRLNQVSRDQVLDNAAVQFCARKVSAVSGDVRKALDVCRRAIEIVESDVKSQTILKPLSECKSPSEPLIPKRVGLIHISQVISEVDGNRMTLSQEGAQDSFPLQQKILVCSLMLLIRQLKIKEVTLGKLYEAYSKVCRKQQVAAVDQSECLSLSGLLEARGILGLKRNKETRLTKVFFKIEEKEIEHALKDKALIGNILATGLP
Put plainly: split reporter; BiFC with Venus fragments: CDC6 in pBiFC-VN and Tmod3 in pBiFC-VC co-transfected in HEK293T; live-cell images after 48 h.

Test [3] addresses T3, CDC6, endogenous in A549 cells (human (endogenous in A549)) (UniProt Q99741).
T3 sequence: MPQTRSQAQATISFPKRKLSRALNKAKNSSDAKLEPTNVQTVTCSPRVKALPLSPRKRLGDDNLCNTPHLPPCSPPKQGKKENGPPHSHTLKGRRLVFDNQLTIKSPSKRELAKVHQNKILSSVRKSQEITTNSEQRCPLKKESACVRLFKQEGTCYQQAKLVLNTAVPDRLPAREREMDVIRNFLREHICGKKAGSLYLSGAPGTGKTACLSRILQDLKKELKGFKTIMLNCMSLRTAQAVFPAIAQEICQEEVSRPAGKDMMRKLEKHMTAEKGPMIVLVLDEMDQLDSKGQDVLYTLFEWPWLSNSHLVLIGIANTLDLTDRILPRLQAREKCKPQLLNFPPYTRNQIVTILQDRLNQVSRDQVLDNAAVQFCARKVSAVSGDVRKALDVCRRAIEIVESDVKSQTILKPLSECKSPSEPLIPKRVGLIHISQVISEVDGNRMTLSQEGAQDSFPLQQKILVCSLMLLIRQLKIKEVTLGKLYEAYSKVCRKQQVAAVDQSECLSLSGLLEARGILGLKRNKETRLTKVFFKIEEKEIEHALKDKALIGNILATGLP
Description: co-IP; endogenous proteins in A549 lysate; 4 ug anti-CDC6 antibody or control IgG overnight, rProteinA/G beads 4 h; western blotting; also A549 cells treated with paclitaxel for 10 days (interaction increased).

Test [4] deals with T4, CDC6 of the IP experiment with Tmod1 (human) (UniProt Q99741).
T4 sequence: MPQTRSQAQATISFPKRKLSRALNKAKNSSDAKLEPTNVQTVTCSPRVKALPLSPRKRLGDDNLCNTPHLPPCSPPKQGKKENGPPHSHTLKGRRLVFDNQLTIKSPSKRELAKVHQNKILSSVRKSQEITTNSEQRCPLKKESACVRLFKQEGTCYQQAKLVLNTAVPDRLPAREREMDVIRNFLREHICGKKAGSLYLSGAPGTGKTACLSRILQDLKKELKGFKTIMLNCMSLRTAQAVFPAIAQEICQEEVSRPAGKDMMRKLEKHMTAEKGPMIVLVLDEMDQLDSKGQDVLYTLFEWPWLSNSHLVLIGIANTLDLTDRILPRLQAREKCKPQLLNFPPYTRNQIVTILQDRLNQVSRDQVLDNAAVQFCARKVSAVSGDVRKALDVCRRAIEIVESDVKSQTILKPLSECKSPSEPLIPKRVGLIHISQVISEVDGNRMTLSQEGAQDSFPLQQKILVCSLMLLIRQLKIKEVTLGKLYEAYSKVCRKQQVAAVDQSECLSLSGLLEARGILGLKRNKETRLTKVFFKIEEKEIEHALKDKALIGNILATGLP
Put plainly: co-IP; IP experiments of CDC6 and Tmod1 (Supplementary Fig. 4h); cells and constructs not told.

These are yes or no findings as the source states them, for the method shown. In cells and extracts the contact can be indirect. Some binding calls cover weakened binding; strength is not graded here. For some of these results: Tags and fused reporters may be left off the sequences shown.

B1: Tmod3 tagged with Flag (protein, UniProt Q9NYL9 1-352)
chain: MALPFRKDLEKYKDLDEDELLGNLSETELKQLETVLDDLDPENALLPAGFRQKNQTSKSTTGPFDREHLLSYLEKEALEHKDREDYVPYTGEKKGKIFIPKQKPVQTFTEEKVSLDPELEEALTSASDTELCDLAAILGMHNLITNTKFCNIMGSSNGVDQEHFSNVVKGEKILPVFDEPPNPTNVEESLKRTKENDAHLVEVNLNNIKNIPIPTLKDFAKALETNTHVKCFSLAATRSNDPVATAFAEMLKVNKTLKSLNVESNFITGVGILALIDALRDNETLAELKIDNQRQQLGTAVELEMAKMLEENTNILKFGYQFTQQGPRTRAANAITKNNDLVRKRRVEGDHQ
Take B1: the binding result in test [1] is “binds”.

B2: Tmod3 in pBiFC-VC (Venus fragment fusion) (protein, UniProt Q9NYL9 1-352)
chain: MALPFRKDLEKYKDLDEDELLGNLSETELKQLETVLDDLDPENALLPAGFRQKNQTSKSTTGPFDREHLLSYLEKEALEHKDREDYVPYTGEKKGKIFIPKQKPVQTFTEEKVSLDPELEEALTSASDTELCDLAAILGMHNLITNTKFCNIMGSSNGVDQEHFSNVVKGEKILPVFDEPPNPTNVEESLKRTKENDAHLVEVNLNNIKNIPIPTLKDFAKALETNTHVKCFSLAATRSNDPVATAFAEMLKVNKTLKSLNVESNFITGVGILALIDALRDNETLAELKIDNQRQQLGTAVELEMAKMLEENTNILKFGYQFTQQGPRTRAANAITKNNDLVRKRRVEGDHQ
As for B2, the binding entry in test [2] is given as “binds”.

B3: Tmod3, endogenous in A549 cells (protein, UniProt Q9NYL9 1-352)
chain: MALPFRKDLEKYKDLDEDELLGNLSETELKQLETVLDDLDPENALLPAGFRQKNQTSKSTTGPFDREHLLSYLEKEALEHKDREDYVPYTGEKKGKIFIPKQKPVQTFTEEKVSLDPELEEALTSASDTELCDLAAILGMHNLITNTKFCNIMGSSNGVDQEHFSNVVKGEKILPVFDEPPNPTNVEESLKRTKENDAHLVEVNLNNIKNIPIPTLKDFAKALETNTHVKCFSLAATRSNDPVATAFAEMLKVNKTLKSLNVESNFITGVGILALIDALRDNETLAELKIDNQRQQLGTAVELEMAKMLEENTNILKFGYQFTQQGPRTRAANAITKNNDLVRKRRVEGDHQ
For B3, the binding result in test [3] is “binds”.

B4: Tmod1 (protein, UniProt P28289 1-359)
chain: MSYRRELEKYRDLDEDEILGALTEEELRTLENELDELDPDNALLPAGLRQKDQTTKAPTGPFKREELLDHLEKQAKEFKDREDLVPYTGEKRGKVWVPKQKPLDPVLESVTLEPELEEALANASDAELCDIAAILGMHTLMSNQQYYQALSSSSIMNKEGLNSVIKPTQYKPVPDEEPNSTDVEETLERIKNNDPKLEEVNLNNIRNIPIPTLKAYAEALKENSYVKKFSIVGTRSNDPVAYALAEMLKENKVLKTLNVESNFISGAGILRLVEALPYNTSLVEMKIDNQSQPLGNKVEMEIVSMLEKNATLLKFGYHFTQQGPRLRASNAMMNNNDLVRKRRLADLTGPIIPKCRSGV
Consider B4, for which the binding result in test [4] was “binds”.

The record behind these values is article PMC12675664.
